For the assay, the target named is T1, recombinant human Lin28A (residues 1-209) (human) (UniProt Q9H9Z2).
T1 sequence: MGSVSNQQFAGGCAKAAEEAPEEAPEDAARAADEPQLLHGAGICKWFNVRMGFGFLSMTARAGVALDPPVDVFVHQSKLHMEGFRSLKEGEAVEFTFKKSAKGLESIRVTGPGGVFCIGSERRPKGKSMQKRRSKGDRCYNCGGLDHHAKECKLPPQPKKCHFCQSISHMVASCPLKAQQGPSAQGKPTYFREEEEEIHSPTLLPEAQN
As to the kind of experiment: RNA footprinting with Tb (III); 100 nM 5'-[32P]-labelled pre-let-7a-1 with or without 1 µM recombinant Lin28A and TUT4 variants; 50 mM Tris-HCl pH 8.5, 100 mM NaCl, 10 mM MgCl2, 5% glycerol, 10 mM β-mercaptoethanol, 22 °C; 10 mM Tb (III), 2 h; protection of the RNA is read; both purified.

Chains of the proteins cited; added tags and fusions are not shown. Lines headed by an entry give the natural chain unless they say otherwise; changes in a name come on top.
UniProt Q5TAX3: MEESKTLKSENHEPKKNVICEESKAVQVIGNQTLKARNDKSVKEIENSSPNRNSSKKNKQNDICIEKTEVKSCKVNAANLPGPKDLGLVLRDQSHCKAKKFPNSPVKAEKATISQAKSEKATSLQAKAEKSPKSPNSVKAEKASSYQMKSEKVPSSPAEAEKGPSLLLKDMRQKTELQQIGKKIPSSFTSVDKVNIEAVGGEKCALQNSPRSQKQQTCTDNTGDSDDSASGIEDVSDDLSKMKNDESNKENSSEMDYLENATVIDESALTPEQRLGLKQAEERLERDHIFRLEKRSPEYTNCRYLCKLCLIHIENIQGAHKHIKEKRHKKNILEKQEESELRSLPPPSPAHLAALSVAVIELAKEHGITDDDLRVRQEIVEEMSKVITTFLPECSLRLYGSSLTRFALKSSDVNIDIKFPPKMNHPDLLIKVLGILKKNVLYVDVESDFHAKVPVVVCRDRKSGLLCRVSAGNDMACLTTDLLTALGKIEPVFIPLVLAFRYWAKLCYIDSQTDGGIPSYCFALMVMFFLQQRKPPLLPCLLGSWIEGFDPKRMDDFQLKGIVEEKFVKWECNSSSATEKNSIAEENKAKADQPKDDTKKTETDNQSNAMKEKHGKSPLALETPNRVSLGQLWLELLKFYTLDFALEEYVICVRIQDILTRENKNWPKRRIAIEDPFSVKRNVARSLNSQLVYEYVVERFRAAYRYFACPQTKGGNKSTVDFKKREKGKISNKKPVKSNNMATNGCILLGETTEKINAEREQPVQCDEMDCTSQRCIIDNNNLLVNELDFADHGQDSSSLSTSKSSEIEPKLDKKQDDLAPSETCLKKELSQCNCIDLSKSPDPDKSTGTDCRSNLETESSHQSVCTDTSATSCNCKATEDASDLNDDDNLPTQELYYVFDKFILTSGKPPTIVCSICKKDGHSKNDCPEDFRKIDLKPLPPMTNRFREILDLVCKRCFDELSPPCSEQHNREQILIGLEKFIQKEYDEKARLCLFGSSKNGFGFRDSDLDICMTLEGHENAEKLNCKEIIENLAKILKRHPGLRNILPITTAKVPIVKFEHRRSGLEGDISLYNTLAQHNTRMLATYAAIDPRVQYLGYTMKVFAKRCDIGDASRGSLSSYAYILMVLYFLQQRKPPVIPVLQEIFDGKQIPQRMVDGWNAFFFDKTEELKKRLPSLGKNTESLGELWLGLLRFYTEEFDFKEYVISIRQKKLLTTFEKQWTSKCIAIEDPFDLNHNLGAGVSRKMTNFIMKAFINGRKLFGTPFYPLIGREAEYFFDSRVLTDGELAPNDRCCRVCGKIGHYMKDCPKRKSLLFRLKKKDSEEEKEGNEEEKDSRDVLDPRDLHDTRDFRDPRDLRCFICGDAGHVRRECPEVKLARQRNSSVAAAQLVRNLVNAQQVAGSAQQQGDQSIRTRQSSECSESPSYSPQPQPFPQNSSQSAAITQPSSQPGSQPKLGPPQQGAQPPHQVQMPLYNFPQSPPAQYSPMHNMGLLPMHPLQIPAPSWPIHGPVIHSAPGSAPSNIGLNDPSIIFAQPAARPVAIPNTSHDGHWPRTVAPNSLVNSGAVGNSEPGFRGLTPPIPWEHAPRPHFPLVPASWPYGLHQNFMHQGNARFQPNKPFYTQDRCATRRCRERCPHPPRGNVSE

Results are given in words; binding and its absence hold for the method and conditions named.

Regarding “hTUT4_N_ΔZ (human TUT4 residues 334-723) (from UniProt Q5TAX3) (domain or fragment)”, the binding result was “no binding (tested: 1 µM)”.

The record behind these values is PMC6488673, “Crystal structure of the Lin28-interacting module of human terminal uridylyltransferase that regulates let-7 expression”.
